In article PMC7541343:

Assays:
[1] = biological target: T1, HA-Smyd2b (zebrafish) (UniProt Q5RGL7); test: co-IP; HEK 293T cells co-transfected, lysed 48 h later (50 mM Tris-HCl pH 7.5, 150 mM NaCl, 1% Triton X-100, 1 mM EDTA, 1 mM DTT); lysate diluted to 0.2% Triton X-100, incubated with anti-Myc/HA-affinity beads 4 h at 4°C; Stat3 detected with anti-Flag antibody by western blot
T1 sequence: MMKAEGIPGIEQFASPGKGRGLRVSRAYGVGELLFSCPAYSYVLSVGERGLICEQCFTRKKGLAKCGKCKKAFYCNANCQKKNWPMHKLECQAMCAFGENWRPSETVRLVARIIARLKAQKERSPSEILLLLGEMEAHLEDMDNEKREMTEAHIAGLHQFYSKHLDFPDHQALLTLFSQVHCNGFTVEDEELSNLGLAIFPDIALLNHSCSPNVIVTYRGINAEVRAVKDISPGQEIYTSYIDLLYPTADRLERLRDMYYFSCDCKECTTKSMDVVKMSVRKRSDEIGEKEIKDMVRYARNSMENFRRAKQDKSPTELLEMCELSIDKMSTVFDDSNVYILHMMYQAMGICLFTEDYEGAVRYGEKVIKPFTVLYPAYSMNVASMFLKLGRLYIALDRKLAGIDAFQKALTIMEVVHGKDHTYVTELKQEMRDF

[2] = biological target: T2, Myc-Smyd2a (zebrafish) (UniProt Q5BJI7); test: as above
T2 sequence: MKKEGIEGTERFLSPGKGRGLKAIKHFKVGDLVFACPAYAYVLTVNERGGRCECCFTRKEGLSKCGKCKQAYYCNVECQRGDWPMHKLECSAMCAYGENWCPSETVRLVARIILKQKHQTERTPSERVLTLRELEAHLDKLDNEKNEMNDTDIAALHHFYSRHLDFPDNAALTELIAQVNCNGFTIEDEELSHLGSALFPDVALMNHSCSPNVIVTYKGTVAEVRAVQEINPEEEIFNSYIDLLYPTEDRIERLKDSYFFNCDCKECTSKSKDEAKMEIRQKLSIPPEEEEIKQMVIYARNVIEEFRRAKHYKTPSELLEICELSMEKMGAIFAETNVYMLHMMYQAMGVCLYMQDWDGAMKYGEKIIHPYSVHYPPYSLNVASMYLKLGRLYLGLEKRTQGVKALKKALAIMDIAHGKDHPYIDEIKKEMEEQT

binding [1]: binds
binding [2]: binds
Substance: Flag-Stat3

Results are given in words; binding and its absence hold for the method and conditions named. In cells and extracts the contact can be indirect. Binding calls can cover weak binding; strength is not graded here. Where a sequence is shown, tags or fusion partners need not be part of it.
